The results in this text go back to the supplement of paper PMC10849652.

Amino acid sequences for entries named in this document (tags omitted). A change or cut given only in a name is not applied to a line headed by its entry.
UniProt Q5SW79: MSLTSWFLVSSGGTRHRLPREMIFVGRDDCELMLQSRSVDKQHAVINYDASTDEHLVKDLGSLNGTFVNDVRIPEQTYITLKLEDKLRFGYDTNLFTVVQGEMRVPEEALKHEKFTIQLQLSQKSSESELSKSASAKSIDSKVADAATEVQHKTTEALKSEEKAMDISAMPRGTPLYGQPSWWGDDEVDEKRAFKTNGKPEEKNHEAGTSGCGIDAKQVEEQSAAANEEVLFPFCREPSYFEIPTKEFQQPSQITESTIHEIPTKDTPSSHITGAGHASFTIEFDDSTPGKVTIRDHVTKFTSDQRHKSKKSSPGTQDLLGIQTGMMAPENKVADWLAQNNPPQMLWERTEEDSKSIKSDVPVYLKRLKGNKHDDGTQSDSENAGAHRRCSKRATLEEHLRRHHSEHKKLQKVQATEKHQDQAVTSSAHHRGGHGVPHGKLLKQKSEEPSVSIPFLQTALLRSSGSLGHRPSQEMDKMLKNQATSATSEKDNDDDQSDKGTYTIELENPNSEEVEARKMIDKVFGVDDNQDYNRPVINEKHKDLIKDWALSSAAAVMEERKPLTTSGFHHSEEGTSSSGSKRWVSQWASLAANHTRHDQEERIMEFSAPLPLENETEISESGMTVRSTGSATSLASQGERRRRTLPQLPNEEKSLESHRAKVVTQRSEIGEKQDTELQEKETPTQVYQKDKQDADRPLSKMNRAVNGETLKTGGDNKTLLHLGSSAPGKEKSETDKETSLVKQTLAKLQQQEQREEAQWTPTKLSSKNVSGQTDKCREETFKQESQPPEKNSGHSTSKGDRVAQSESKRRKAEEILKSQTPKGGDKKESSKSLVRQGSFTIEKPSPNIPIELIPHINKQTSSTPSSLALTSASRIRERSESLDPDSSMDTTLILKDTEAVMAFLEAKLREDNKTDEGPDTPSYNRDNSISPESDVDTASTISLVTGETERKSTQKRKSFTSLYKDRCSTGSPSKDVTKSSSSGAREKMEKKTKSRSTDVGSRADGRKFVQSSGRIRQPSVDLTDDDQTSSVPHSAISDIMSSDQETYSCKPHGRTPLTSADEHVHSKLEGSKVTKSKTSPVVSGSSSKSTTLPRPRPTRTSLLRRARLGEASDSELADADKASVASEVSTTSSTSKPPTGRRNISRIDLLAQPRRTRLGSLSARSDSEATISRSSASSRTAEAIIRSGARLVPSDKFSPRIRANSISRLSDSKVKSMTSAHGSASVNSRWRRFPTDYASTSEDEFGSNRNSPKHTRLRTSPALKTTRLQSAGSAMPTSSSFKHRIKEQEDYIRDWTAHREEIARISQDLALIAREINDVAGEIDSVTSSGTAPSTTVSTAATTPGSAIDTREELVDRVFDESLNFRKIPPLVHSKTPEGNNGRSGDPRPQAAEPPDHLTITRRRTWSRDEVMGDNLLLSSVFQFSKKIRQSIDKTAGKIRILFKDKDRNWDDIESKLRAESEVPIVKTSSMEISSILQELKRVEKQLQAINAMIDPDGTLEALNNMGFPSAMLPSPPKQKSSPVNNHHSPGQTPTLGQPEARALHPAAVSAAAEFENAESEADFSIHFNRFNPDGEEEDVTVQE
UniProt Q9NSP4: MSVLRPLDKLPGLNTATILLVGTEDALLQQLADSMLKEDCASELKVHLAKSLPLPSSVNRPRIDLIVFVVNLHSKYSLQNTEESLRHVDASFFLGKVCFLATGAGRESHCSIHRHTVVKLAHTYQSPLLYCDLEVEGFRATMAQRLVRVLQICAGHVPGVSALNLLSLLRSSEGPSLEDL
UniProt Q6IPU0: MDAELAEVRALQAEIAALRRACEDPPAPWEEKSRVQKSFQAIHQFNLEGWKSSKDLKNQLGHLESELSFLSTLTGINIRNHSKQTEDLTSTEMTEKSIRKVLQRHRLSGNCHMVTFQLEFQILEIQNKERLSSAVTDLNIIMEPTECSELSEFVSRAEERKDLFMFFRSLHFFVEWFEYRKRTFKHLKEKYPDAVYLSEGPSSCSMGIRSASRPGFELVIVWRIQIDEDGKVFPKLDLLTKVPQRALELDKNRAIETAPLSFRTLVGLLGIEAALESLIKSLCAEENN
UniProt O14613: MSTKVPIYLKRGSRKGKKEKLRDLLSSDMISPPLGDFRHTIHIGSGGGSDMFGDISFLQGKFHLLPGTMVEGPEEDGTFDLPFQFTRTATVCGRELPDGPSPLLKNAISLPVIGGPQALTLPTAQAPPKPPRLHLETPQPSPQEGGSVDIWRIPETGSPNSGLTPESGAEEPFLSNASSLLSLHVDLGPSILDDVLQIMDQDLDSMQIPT
UniProt Q7L2Z9: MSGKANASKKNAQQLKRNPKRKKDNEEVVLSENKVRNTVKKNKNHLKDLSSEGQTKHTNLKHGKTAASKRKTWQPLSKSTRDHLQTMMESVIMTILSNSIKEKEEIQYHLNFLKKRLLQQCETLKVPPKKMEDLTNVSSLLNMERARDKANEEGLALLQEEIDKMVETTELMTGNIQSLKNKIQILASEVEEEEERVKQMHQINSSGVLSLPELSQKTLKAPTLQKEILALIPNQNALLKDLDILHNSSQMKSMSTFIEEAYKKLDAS
UniProt Q5T655: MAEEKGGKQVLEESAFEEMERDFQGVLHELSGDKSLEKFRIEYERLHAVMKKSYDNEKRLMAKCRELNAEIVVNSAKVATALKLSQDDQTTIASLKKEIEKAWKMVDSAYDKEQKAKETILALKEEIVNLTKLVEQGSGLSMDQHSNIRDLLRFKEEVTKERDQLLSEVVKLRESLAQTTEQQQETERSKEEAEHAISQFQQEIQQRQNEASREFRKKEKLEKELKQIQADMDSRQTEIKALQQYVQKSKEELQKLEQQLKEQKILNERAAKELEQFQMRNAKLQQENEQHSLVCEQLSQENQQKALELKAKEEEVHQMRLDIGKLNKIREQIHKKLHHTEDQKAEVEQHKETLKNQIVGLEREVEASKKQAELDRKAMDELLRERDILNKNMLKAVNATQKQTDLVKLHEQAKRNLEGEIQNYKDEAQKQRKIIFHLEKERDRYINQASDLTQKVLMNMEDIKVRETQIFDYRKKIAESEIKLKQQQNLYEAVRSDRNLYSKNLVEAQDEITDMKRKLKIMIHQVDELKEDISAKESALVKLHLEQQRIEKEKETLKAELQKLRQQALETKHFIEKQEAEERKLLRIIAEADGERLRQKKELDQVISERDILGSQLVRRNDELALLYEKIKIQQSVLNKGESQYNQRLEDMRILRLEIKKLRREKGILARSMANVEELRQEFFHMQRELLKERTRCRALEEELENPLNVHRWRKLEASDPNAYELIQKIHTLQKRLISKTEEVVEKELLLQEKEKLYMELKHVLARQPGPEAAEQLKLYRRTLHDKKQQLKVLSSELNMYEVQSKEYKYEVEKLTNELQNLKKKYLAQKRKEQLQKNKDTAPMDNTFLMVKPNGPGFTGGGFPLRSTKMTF
UniProt O14646: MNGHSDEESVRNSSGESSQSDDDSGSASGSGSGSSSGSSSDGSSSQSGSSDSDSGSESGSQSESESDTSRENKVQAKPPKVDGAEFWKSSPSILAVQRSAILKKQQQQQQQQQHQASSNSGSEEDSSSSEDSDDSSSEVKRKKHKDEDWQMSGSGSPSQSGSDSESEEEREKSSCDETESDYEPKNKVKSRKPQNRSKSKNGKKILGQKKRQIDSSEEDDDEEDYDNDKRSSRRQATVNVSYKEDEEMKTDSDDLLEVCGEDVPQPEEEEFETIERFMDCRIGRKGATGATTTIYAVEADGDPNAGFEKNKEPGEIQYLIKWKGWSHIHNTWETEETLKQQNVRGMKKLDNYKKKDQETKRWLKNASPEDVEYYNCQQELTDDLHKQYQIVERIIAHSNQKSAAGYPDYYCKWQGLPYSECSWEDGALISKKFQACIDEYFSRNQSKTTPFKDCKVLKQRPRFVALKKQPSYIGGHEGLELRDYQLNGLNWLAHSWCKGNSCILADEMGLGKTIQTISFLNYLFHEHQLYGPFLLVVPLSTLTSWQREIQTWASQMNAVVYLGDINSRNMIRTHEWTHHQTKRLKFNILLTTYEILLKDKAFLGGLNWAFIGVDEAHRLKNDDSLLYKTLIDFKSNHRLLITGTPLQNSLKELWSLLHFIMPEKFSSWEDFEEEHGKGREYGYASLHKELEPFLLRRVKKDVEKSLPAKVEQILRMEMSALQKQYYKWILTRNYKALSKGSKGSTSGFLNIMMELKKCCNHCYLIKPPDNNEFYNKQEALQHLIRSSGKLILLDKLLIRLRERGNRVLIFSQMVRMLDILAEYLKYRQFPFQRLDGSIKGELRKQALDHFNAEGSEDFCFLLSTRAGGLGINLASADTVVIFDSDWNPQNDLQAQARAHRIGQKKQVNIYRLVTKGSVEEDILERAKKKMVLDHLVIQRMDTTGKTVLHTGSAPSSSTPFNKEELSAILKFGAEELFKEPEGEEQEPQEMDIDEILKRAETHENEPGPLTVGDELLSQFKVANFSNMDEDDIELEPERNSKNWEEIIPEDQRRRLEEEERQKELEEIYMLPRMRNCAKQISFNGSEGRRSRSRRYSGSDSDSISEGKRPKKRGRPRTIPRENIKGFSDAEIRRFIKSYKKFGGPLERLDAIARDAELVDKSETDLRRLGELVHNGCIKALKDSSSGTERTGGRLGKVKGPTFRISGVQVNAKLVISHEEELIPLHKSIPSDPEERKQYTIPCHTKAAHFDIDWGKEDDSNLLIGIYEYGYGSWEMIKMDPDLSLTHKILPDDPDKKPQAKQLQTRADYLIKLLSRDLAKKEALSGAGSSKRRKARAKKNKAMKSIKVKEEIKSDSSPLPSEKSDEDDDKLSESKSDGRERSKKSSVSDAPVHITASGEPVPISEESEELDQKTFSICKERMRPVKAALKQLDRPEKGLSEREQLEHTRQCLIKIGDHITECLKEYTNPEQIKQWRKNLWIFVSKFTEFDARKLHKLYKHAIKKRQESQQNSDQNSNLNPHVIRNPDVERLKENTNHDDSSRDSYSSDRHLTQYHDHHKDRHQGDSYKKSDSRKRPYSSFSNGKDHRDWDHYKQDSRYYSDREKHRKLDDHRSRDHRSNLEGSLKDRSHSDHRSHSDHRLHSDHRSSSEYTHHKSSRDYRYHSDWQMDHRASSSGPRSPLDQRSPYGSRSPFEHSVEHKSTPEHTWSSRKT
UniProt Q9BS16: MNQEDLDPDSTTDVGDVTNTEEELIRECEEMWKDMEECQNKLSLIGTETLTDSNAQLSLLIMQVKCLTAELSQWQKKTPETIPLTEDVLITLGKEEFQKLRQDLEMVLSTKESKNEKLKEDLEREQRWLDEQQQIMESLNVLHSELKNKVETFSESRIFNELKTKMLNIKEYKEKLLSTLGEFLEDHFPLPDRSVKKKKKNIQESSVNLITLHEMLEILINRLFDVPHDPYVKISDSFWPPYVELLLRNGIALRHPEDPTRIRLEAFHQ
UniProt P55290: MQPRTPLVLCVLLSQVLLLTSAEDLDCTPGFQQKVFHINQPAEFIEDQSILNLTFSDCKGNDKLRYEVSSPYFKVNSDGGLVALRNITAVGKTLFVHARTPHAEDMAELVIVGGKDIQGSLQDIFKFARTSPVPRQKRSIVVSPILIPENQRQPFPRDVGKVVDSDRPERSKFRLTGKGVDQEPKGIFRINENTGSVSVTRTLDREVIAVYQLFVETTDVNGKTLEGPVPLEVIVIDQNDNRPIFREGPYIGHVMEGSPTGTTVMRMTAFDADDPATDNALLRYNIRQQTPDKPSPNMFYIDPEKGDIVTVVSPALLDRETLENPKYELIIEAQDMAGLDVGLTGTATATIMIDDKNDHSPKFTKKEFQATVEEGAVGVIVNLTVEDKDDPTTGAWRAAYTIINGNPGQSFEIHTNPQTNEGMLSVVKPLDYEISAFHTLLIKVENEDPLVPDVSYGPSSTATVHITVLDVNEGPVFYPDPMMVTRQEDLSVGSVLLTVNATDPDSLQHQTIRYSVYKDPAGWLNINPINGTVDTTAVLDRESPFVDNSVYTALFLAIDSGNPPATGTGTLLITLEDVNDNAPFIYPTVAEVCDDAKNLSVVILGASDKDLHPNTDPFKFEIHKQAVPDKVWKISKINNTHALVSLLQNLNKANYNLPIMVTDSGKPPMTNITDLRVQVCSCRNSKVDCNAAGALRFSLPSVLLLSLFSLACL
UniProt Q86XR8: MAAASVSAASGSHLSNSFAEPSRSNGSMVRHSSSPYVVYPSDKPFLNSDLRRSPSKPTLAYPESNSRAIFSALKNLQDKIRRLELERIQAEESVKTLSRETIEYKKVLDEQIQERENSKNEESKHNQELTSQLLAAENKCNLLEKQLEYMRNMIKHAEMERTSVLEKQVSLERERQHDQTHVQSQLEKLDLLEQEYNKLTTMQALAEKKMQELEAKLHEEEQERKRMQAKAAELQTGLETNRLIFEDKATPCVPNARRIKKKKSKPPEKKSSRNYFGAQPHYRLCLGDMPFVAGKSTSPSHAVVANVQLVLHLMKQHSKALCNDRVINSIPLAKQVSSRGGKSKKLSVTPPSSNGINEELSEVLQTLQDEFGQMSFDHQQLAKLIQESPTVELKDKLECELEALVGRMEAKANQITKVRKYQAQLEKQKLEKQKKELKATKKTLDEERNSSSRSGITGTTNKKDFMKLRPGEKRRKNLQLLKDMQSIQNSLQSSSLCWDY

Holding throughout (experiment): log2 fold change, soluble protein after heating vs DMSO (PISA); higher = thermal stabilisation; K562 cells, 10 uM, 30 min; active = over 0.2 and 3.5 SD of the protein, either way, in both replicates (recomputed)
Compound in assay [1]: CC1=NC(=CC=C1)C2=C(N=C(N2)C(C)(C)C)C3=CC4=NC=CN=C4C=C3
The method, boiled down: (§1)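 K562 cells at 2×10^6 cells/mL were given 10 μM compound for 30 min. Aliquots then went through 3 min of heating across 48°C-58°C, were pooled, and were extracted in PBS with 0.5% NP-40 at 4°C, and the supernatant after 21,000xg for 90 min was quantified by TMTpro 16plex LC-MS/MS with channel sums equalised. Thermal stability relative to control samples, from duplicates, is given as log2 fold change.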

Compound in a further assay: CCN(CC)Cc1ccc2cc(COC(=O)Nc3ccc(C(=O)NO)cc3)ccc2c1 [givinostat]
Summed up:
as §1

Compound in the next assay: CCN(CCCOc1ccc2c(Nc3cc(CC(=O)Nc4cccc(F)c4)[nH]n3)ncnc2c1)CCOP(=O)(O)O [barasertib]
Summed up:
as §1

Compound in assay [2]: CCn1c(C(=O)N(C2CC2)C2CC2)cc2c3c(ncn3C)c(Nc3cc(C)n(C)n3)nc21
The method, boiled down: as §1

Compound in another assay: CN(CCOC1=CC=C(C=C1)C[C@H]2C(=O)NC(=O)S2)C3=CC=CC=N3 (racemic) [rosiglitazone]
The method, boiled down: as §1

Compound in assay [3]: CN1C2=C(C3=C1C(=O)N(N=C3)CC4=CC(=CC=C4)N)SC(=C2)S(=O)C
The method, boiled down: as §1

Compound in assay [4]: CC1=C(C=C(C=C1)NC(=O)C2=CC(=CC=C2)N(C)C)NC(=O)C3=CC=C(C=C3)O
The method, boiled down:
as §1

Compound in assay [5]: CC1=CC=C(C=C1)SC2=C3C=C(SC3=CN=C2)C(=O)N
The method, boiled down:
as §1

Compound in the next assay: CCCCN(Cc1ccc(C(=O)NO)cc1)C(=O)Nc1ccccc1 [Nexturastat A]
The method, boiled down:
as §1

Compound in assay [6]: CCCS(=O)(=O)Nc1ccc(F)c(C(=O)c2c[nH]c3ncc(Cl)cc23)c1F
Summed up:
as §1

Compound in assay [7]: CCCc1cc(C)[nH]c(=O)c1CNC(=O)c1cc(-c2ccnc(N3CCN(C)CC3)c2)cc2c1cnn2C(C)C
Summed up: as §1

Compound in a further assay: CC[C@@H]1C(=O)N(C)c2cnc(Nc3ccc(C(=O)N[C@H]4CC[C@H](N5CCN(CC6CC6)CC5)CC4)cc3OC)nc2N1C(C)C [volasertib]
The method, boiled down:
as §1

Compound in assay [8]: CC[C@H](C)N1C=C(C2=C(C=C(C=C21)C3=CN=C(C=C3)N4CCNCC4)C(=O)NCC5=C(C=C(NC5=O)C)C)C
Summed up: as §1

Compound in the next assay: CC[C@H](C)[C@@H](C(=O)N[C@@H]([C@@H](C)O)C(=O)N[C@@H](CC(C)C)C(=O)[C@]1(CO1)C)NC(=O)[C@H]([C@@H](C)CC)N(C)C(=O)C [epoxomicin]
The method, boiled down: as §1

Compound in assay [9]: CCn1cc(-c2ccnc3[nH]c(-c4cccc(CN(C)C)c4)cc23)c(-c2ccc(NC(=O)N(C)C)cc2)n1
Summed up:
as §1

Compound in assay [10]: CN1CCC(CNc2ccc3ncc(-c4cccc(OC(F)(F)F)c4)n3n2)CC1
Summed up:
as §1

Compound in assay [11]: CC1=C(C=C(C=C1)NC(=O)C2=CC(=CC=C2)C(C)(C)C#N)NC3=CC4=C(C=C3)N=CN(C4=O)C
Summed up:
as §1

Compound in another assay: CCCS(=O)(=O)Nc1ccc(F)c(C(=O)c2c[nH]c3ncc(-c4ccc(Cl)cc4)cc23)c1F [vemurafenib]
Summed up:
as §1

Compound in assay [12]: CN(C)CC(=O)Nc1ccc2[nH]c(=O)c3ccccc3c2c1
Summed up:
as §1

Compound in assay [13]: CC[C@@H]1C(=O)N(C)c2cnc(Nc3ccc(C(=O)NC4CCN(C)CC4)cc3OC)nc2N1C1CCCC1
Summed up: as §1

The list shows a part of the results.

CEP170 isoform 3 (UniProt Q5SW79): the log2 fold change in assay [1] was inactive: 0.054; in the assay with givinostat it was inactive: -0.074; with barasertib, inactive: 0.018; in [2] it was inactive: 0.183; with rosiglitazone it was inactive: 0.249.

For CENPM (UniProt Q9NSP4), the log2 fold change is inactive: 0.075 in the assay with givinostat, inactive: -0.117 in [2] and inactive: 0.065 in assay [3].

Take CENPP (UniProt Q6IPU0): the log2 fold change is inactive: -0.053 in assay [4]; inactive: -0.03 in [5]; inactive: -0.046 in [1]; inactive: 0.204 with Nexturastat A; inactive: -0.148 in assay [6]; inactive: 0.014 in assay [7]. The log2 fold change is inactive: -0.019 in the assay with givinostat; inactive: -0.015 in the assay with barasertib; inactive: 0.086 in the assay with volasertib; inactive: 0.13 in [8]; inactive: -0.062 in the assay with epoxomicin; inactive: -0.168 in assay [2]. Further, the log2 fold change in [9] was inactive: -0.023; with rosiglitazone it was inactive: -0.049; in assay [3], inactive: -0.027; in assay [10], inactive: 0.14.

Consider CDS1 (UniProt Q92903), for which the log2 fold change with Nexturastat A is inactive: 0.091; in [7], inactive: -0.199; in the assay with givinostat, inactive: 0.001; in the assay with barasertib, inactive: 0.063; with epoxomicin, inactive: -0.019; in assay [2] it was inactive: 0.048. In addition, the log2 fold change (with rosiglitazone; in assay [3]) was inactive: 0.03 throughout.

As to CDC42EP2 (UniProt O14613), the log2 fold change in [11] is inactive: 0.072; with Nexturastat A, inactive: 0.061; in the assay with givinostat, inactive: 0.099; in the assay with barasertib, inactive: 0.123; with epoxomicin, inactive: 0.384; in [2], inactive: 0.024. Moreover, the log2 fold change with rosiglitazone is inactive: -0.198.

With CDT1 (UniProt Q9H211), the log2 fold change in the assay with Nexturastat A is inactive: 0.096; with epoxomicin, inactive: 0.99.

In the case of CDC42EP3 (UniProt Q9UKI2), the log2 fold change was inactive: -0.076 with Nexturastat A; inactive: -0.318 in [7]; inactive: -0.113 in the assay with givinostat; inactive: 0.124 with epoxomicin; inactive: 0.217 in assay [2].

Consider CEFIP (UniProt Q711Q0), for which the log2 fold change in assay [5] was inactive: -0.022; with Nexturastat A it was inactive: 0.145; with vemurafenib, inactive: 0.183; in assay [6], inactive: 0.012; in assay [7] it was inactive: -0.002; with givinostat, inactive: -0.038. Further, the log2 fold change was inactive: 0.168 with barasertib; inactive: -0.043 with volasertib; inactive: -0.089 with epoxomicin; inactive: 0 in assay [2]; inactive: -0.208 in assay [12]; inactive: -0.127 in the assay with rosiglitazone.

CENPQ (UniProt Q7L2Z9): the log2 fold change in assay [11] was inactive: -0.025; with Nexturastat A it was inactive: -0.116; in assay [7], inactive: 0.122; with givinostat, inactive: 0.225; in assay [8], inactive: -0.01; with epoxomicin it was inactive: 0.069. Also, the log2 fold change was inactive: -0.032 in assay [2] and inactive: -0.019 in assay [3].

As to CDH2 (UniProt P19022), the log2 fold change in [5] was inactive: 0.2; in [1], inactive: -0.003; in [6] it was inactive: -0.162; with volasertib, inactive: -0.245; in assay [9] it was inactive: 0.134; in [10] it was inactive: 0.13.

Turning to CFAP58 (UniProt Q5T655), the log2 fold change in assay [4] is inactive: 0.185; in [5], inactive: 0.07; in assay [6], inactive: -0.175; in assay [7], inactive: -0.219; in assay [13], inactive: -0.353; with volasertib it was inactive: -0.04. Also, the figures for the log2 fold change in assay [9] and in [10] were inactive: -0.112 and inactive: -0.272, respectively.

For CHD1 (UniProt O14646), the log2 fold change with Nexturastat A was inactive: 0.166; in the assay with epoxomicin it was inactive: -0.225; in assay [9] it was inactive: 0.009; in [10] it was inactive: 0.084.

For the target CEBPZ (UniProt Q03701), the log2 fold change in [11] was inactive: -0.263; with vemurafenib, inactive: -0.028; in [7], inactive: 0.047; in [9], inactive: -0.137; in assay [12] it was inactive: 0.049; in assay [3] it was inactive: 0.161. Besides, the log2 fold change in [10] was inactive: 0.053.

Consider CFAP47 (UniProt Q6ZTR5), for which the log2 fold change in assay [5] is inactive: -0.159; with Nexturastat A, inactive: -0.041; in the assay with vemurafenib, inactive: -0.11; in assay [6], inactive: -0.106; with barasertib it was inactive: -0.035; in [13] it was inactive: 0.063. Besides, the log2 fold change with volasertib was inactive: 0.065; in the assay with epoxomicin, inactive: -0.006; in assay [12], inactive: -0.248; in assay [3], inactive: 0.23.

CENPK (UniProt Q9BS16): the log2 fold change in assay [5] was inactive: -0.016; in [1] it was inactive: 0.074; in the assay with vemurafenib it was inactive: 0.026; in assay [6], inactive: 0.085; in the assay with givinostat, inactive: -0.016; with barasertib it was inactive: -0.022. Further, the log2 fold change in [13] was inactive: -0.238; with volasertib it was inactive: -0.154; in [8], inactive: 0.105; in assay [2], inactive: -0.023; in [12], inactive: 0.012; with rosiglitazone, inactive: 0.076.

Turning to CENPX (UniProt A8MT69), the log2 fold change in [11] was inactive: -0.04; with givinostat it was inactive: 0.321; in assay [13] it was inactive: 0.003; in assay [2] it was inactive: -0.181.

On to CHMP2A (UniProt M0R1T5), for which the log2 fold change in assay [5] was inactive: -0.013; in assay [6] it was inactive: 0.008; in [7], inactive: -0.038; with volasertib, inactive: 0.052.

CEMIP2 (UniProt Q9UHN6): the log2 fold change in assay [4] was inactive: 0.043; in assay [5], active: 0.592; in assay [1], inactive: 0.033; in the assay with Nexturastat A it was inactive: 0.02; with vemurafenib, inactive: -0.045; in [6], inactive: -0.1. The log2 fold change was inactive: -0.168 in [7]; inactive: -0.052 in the assay with givinostat; inactive: -0.012 in the assay with barasertib; inactive: -0.209 in assay [13]; inactive: -0.364 with volasertib; inactive: -0.142 in [8]. Also, the log2 fold change with epoxomicin is inactive: 0.058; in assay [9], inactive: -0.088; in [12], inactive: -0.049; in assay [3], inactive: 0.032; in assay [10] it was inactive: 0.123.

As to CDH13 isoform 4 (UniProt P55290), the log2 fold change in assay [3] is inactive: -0.138.

CEP57 (UniProt Q86XR8): the log2 fold change is inactive: -0.094 in assay [11]; inactive: -0.029 in assay [7]; inactive: -0.289 in assay [8]; inactive: 0.105 in assay [9]; inactive: -0.113 in assay [10].
